In patent publication US9909104B2, “Generating definitive endoderm and pancreatic progenitor cells” (The J. David Gladstone Institutes, a testamentary trust …, priority 2013, dated 2018):
At least one structure is not confirmed: it was looked up by name or label, or the drawing left a doubt.

Tested on: definitive endoderm-like cells (DELCs)
Assay: Induction of DELCs into Pdx1+/Nkx6.1+ pancreatic progenitor-like cells (step III)
Format: cell-based, mouse
Conditions: screen of 400 compounds, confirmed in larger-well cultures

Q: For `CC1=C(/C=C/C(C)=C/C=C/C(C)=C/C(=O)O)C(C)(C)CCC1` [retinoic acid], which “hit confirmation: increase of Pdx1 and/or Nkx6.1 expression” value is on record?
A: Its value is “Confirmed hits”.
